No constants are given. Whether binding was seen depends on the method and setting. In cells and extracts the contact can be indirect. Some binding calls cover weakened binding; strength is not graded here.

The experiment deals with T1, endogenous sortilin of rat prefrontal cortex (rat (endogenous in prefrontal cortex)) (UniProt O54861).
T1 sequence: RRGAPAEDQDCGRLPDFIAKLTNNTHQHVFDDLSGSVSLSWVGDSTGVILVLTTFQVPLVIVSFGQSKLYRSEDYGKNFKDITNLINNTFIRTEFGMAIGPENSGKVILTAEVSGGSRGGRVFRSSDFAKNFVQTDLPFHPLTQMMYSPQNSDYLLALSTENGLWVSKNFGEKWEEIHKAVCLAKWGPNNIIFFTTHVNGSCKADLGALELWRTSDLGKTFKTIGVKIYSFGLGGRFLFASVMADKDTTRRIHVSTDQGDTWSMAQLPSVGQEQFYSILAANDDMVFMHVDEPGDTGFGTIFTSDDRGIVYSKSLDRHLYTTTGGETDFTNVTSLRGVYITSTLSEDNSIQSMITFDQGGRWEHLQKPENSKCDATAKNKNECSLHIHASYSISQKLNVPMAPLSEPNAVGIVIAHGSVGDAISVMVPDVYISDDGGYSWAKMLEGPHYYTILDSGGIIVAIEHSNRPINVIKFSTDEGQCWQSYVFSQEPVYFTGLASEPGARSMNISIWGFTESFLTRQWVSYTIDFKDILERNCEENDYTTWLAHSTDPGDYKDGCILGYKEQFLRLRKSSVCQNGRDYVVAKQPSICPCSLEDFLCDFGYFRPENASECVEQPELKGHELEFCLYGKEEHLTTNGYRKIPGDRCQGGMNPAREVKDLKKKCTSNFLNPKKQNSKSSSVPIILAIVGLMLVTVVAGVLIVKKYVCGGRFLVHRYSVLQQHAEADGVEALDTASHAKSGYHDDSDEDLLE
The experiment in a line: co-IP; endogenous proteins, rat (10 weeks) prefrontal cortex lysate in 50 mM Tris-HCl pH 7.4, 150 mM NaCl, 5 mM CHAPS; IP with anti-sortilin or control IgG; Western blot. For orientation: Immunoblotting shows a protein as a band on a membrane.

B1: endogenous NSG1 of rat prefrontal cortex (protein, UniProt P02683 1-185)
chain: MVKLGNNFAEKGTKQPLLEDGFDTIPLMTPLDVNQLQFPPPDKVVVKTKTEYEPDRKKGKARPPKIAEFTVSITEGVTERFKVSVLVLFALAFLTCVVFLVVYKVYKYDRACPDGFVLKNTQCIPEGLESYYTEQDSSAREKFYTVINHYNLAKQSITRSVSPWMSVLSEEKLSEQETEAAEKSA
Regarding B1, the binding result is given as “binds”.

B2: endogenous NSG2 of rat prefrontal cortex (protein, UniProt Q3KR51 1-171)
chain: MVKLNGNPGEKGAKPPSVEDGFQTVPLITPLEVNHLQLSAPEKVIVKTRTEYQPEQRNKGKFRVPKIAEFTVTILVSLALAFLACIVFLVVYKAFTYDHSCPEGFVYKHKRCIPASLDAYYSSQDPSSRSRFYTVISHYSVAKQSTARAIGPWLSAAAVIHEPKPPKTQGH
As for B2, the binding entry is given as “binds”.

The values above are taken from publication PMC10704435.
